{
  "source": "patent US4552878A",
  "about": "“Benzo- and thieno-triazine-1,2,3 ones-4” (Lipha, Lyonnaise Industrielle Pharmaceutique, priority 1982, dated 1985)",
  "test_system": "central effects of 5-hydroxytryptophan",
  "assay": "Potentiation of the central effects of 5-hydroxytryptophan (5-HTP)",
  "type": "in vivo",
  "conditions": "Mus musculus, ip; Swiss mice, I.P., 30 minutes before 300 mg/kg 5-HTP I.P.; observed 30 min later for 1 min; read-out: Potentiation of the 5-HTP ED50 DE50",
  "experimental": "This potentiation objectifying the axonal blocking of the reabsorption of the seratonin at the serotoninergic nerve ends was studied by the method described by T. M. Pugsley and […] 33, 57 (1977)]: […] The mice are observed 30 min later, for 1 min, during which the following sterotyped movements are classified: extension of the hind paws, trembling, excitement, head shaking.",
  "data": [
    {"smiles": "Cl.O=c1n(CCCN2CCN(c3cccc(Cl)c3)CC2)nc2ccccn12", "note": "[Trazodone Hydrochloride, 2-[3-[4-(3-chlorophenyl)-1-piperazinyl]propyl]-1,2,4-triazolo[4,3-a]pyridin-3 (2H)-one hydrochloride, reference compound]", "values": [
      {"measurement": "ED50", "result": 20, "unit": "mg/kg"}
    ]}
  ]
}
